Over roughly 33,000 sequences, “E-score (-0.5 to 0.5)” has its median near -0.016; the highest 2% begin near 0.3. The list shows a part of the results.
These sequences were tested against T1, Yer184c (UniProt P39961) (assay: PBM E-score (8-mer binding enrichment) (E-score (-0.5 to 0.5)); higher = stronger / more preferred TF binding). Details: protein concentration: 100 nM; construct: GST-full length.
T1 sequence: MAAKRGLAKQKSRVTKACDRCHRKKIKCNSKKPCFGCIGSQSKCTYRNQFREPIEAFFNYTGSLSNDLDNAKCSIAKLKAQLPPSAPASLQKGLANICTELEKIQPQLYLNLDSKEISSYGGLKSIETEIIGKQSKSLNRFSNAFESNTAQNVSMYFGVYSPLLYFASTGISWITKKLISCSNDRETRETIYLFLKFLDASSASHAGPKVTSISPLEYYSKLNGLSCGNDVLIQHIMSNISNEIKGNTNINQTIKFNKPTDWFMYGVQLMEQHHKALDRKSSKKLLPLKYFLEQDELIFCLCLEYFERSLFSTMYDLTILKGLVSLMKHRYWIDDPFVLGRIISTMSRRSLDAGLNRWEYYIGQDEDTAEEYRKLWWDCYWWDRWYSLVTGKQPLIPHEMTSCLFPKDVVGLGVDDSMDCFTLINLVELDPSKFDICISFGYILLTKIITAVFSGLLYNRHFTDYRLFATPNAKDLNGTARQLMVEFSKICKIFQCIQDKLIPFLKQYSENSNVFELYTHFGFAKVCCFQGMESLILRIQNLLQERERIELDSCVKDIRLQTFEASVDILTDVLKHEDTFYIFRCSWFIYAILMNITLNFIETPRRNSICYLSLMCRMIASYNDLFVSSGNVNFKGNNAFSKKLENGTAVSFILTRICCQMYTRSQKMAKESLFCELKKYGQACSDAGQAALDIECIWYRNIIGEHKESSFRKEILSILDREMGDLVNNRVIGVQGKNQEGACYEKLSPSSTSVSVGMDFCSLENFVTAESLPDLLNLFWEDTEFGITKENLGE
Summary of the method: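 PURExpress in vitro transcription/translation supplied GST-tagged yeast transcription factors, either full-length or DNA-binding domain. Applied at about 100-200 nM to universal all-10-mer Agilent arrays double-stranded by primer extension, the bound protein was detected with fluorescent anti-GST. E-scores, modified Wilcoxon-Mann-Whitney statistics, were given by the Universal PBM Analysis Suite to ungapped eight-base words pooled with their reverse complements after masliner normalisation.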

In order of rising “PBM E-score” value:
1. GTCGCCAC  -0.284
2. CCCTGGCC  -0.262
3. CCCATACA  -0.258
4. CGAGTCTC  -0.227
5. CATAGGAC  -0.224
6. CACCCCTC  -0.221
7. CACATCTG  -0.209
8. GAAGGCGC  -0.184
9. AGAAGAGG  -0.184
10. AGAACTCT  -0.177
11. CACTATGG  -0.176
12. ATCCTAGC  -0.175
13. ATGCCTGG  -0.17
14. AGAGTGTG  -0.16
15. CATAGTCA  -0.147
16. CCTGCAGG  -0.14
17. ATTGCAGC  -0.14
18. GTTCTACA  -0.14
19. CGCCTTGA  -0.135
20. ACAGTTAG  -0.134
21. GCACTCCC  -0.124
22. ACGCGACG  -0.123
23. ACCCGTGC  -0.123
24. AGGCACCG  -0.122
25. GCCACCGC  -0.115
26. CGTCGCTA  -0.113
27. ACAGCGGG  -0.113
28. CAAATCTG  -0.11
29. ATCGAGAT  -0.0939
30. CCACACCA  -0.0912
31. GACTCGTA  -0.0872
32. CCTTCGTA  -0.0851
33. GAGCCTAA  -0.0836
34. CAAGATTG  -0.081
35. GAGAGGCA  -0.0809
36. CGTGGCAA  -0.0803
37. AGCTATTA  -0.0699
38. CTCCCCGA  -0.0658
39. AGATCGCC  -0.0516
40. AAAGTTCT  -0.0439
41. AAAGACCG  -0.0408
42. CGTTAACG  -0.0399
43. AGCGTCAT  -0.0378
44. GCTACGTA  -0.0292
45. ACTTGCAT  -0.0256
46. GGGGAAAA  -0.0216
47. CGCAACTA  -0.00988
48. CAGAACGA  -9e-05
49. AGAAACCA  0.00764
50. ACACATAG  0.00943
51. TGCCGTAA  0.0109
52. GAAACTGA  0.0115
53. CTTTATTC  0.0145
54. CGATAGTC  0.0184
55. CCGACCTA  0.0204
56. TCATTTAA  0.0211
57. ATAACTAC  0.0239
58. CCGTTCCA  0.0249
59. TCTGGTAA  0.0307
60. CAATCCAG  0.0394
61. AATTTAGC  0.0407
62. AAGTAAAC  0.0444
63. GTACCGAC  0.0552
64. ACATAAGT  0.0642
65. CTGTTTAA  0.0786
66. ATGGATAC  0.0807
67. AAACAAAG  0.0857
68. CAAAGCGG  0.0871
69. CTTTACGC  0.0875
70. CACTACAA  0.0945
71. ACCTAAAC  0.0973
72. AATCGCAA  0.124
73. AAACTTCA  0.134
74. TCTGACAA  0.15
75. CAAGAACC  0.156
76. TCGGTCAA  0.184
77. ACGGCGAT  0.188
78. CTTTCGGC  0.201
79. ATAATTCA  0.208
80. GATTAAGC  0.215
81. GAAGAAAA  0.24
82. ATCGGTTA  0.246
83. GTTTATAA  0.251
84. ATACCGGC  0.263
85. CGACCTAA  0.265
86. CGGCTGCA  0.278

Source: the supplement of paper PMC3334620
